Data from US12351590B2, “Pyrrolopyrimidine compound and use thereof” (GUANGZHOU JOYO PHARMATECH CO., LTD., priority 2019, dated 2025).

Experiment: in vitro
Conditions: human, Caco-2, pH 7.4
Method: The transport buffer solution was HBSS (Hanks' balanced salt solution) and 10 mM HEPES [N-(2-hydroxyethyl)piperazine-N′-(2-ethanesulfonic acid)], pH 7.40±0.05; Caco-2 cells were purchased from ATCC.
Caco-2 cells were seeded at 1×10^5 cells/cm^2 in polyethylene terephthalate (PET) 96-well BD insert plates, and the medium was refreshed every 4-5 days until day 21-28 to form a confluent monolayer. Test compounds were tested in a two-way format at 2 μM in duplicate. Digoxin was added at 10 μM in the two-way format, and nadolol and metoprolol were added at 2 μM in the two-way format. Final DMSO concentration was adjusted to less than 1%. The plates were incubated in a CO2 incubator at 37±1° C. for 2 h and at 5% CO2 and saturated humidity without shaking. All samples were mixed with acetonitrile containing an internal standard, centrifuged at 4000 rpm for 10 min. 100 microliters of supernatant was diluted with 100 microliters of distilled water for LC/MS/MS analysis. […] After the transport test, the integrity of the Caco-2 cell monolayer was determined by fluorescein yellow exclusion reaction, and the apparent permeability coefficient and efflux ratio were calculated.

Papp B→A at 2 h, 10 μM: 13.9 ×10⁻⁶ cm/s | efflux ratio at 2 h, 10 μM: 349
Structure (SMILES): C[C@H]1O[C@@H](O[C@H]2[C@@H](O)C[C@H](O[C@H]3[C@@H](O)C[C@H](O[C@H]4CC[C@@]5(C)[C@H](CC[C@@H]6[C@@H]5C[C@@H](O)[C@]5(C)[C@@H](C7=CC(=O)OC7)CC[C@]65O)C4)O[C@@H]3C)O[C@@H]2C)C[C@H](O)[C@@H]1O [Digoxin, reference compound]
